Consider one substance from publication PMC5066963.

By UniProt entry, the sequences of proteins in these tests, tags left out.
UniProt Q9USK8: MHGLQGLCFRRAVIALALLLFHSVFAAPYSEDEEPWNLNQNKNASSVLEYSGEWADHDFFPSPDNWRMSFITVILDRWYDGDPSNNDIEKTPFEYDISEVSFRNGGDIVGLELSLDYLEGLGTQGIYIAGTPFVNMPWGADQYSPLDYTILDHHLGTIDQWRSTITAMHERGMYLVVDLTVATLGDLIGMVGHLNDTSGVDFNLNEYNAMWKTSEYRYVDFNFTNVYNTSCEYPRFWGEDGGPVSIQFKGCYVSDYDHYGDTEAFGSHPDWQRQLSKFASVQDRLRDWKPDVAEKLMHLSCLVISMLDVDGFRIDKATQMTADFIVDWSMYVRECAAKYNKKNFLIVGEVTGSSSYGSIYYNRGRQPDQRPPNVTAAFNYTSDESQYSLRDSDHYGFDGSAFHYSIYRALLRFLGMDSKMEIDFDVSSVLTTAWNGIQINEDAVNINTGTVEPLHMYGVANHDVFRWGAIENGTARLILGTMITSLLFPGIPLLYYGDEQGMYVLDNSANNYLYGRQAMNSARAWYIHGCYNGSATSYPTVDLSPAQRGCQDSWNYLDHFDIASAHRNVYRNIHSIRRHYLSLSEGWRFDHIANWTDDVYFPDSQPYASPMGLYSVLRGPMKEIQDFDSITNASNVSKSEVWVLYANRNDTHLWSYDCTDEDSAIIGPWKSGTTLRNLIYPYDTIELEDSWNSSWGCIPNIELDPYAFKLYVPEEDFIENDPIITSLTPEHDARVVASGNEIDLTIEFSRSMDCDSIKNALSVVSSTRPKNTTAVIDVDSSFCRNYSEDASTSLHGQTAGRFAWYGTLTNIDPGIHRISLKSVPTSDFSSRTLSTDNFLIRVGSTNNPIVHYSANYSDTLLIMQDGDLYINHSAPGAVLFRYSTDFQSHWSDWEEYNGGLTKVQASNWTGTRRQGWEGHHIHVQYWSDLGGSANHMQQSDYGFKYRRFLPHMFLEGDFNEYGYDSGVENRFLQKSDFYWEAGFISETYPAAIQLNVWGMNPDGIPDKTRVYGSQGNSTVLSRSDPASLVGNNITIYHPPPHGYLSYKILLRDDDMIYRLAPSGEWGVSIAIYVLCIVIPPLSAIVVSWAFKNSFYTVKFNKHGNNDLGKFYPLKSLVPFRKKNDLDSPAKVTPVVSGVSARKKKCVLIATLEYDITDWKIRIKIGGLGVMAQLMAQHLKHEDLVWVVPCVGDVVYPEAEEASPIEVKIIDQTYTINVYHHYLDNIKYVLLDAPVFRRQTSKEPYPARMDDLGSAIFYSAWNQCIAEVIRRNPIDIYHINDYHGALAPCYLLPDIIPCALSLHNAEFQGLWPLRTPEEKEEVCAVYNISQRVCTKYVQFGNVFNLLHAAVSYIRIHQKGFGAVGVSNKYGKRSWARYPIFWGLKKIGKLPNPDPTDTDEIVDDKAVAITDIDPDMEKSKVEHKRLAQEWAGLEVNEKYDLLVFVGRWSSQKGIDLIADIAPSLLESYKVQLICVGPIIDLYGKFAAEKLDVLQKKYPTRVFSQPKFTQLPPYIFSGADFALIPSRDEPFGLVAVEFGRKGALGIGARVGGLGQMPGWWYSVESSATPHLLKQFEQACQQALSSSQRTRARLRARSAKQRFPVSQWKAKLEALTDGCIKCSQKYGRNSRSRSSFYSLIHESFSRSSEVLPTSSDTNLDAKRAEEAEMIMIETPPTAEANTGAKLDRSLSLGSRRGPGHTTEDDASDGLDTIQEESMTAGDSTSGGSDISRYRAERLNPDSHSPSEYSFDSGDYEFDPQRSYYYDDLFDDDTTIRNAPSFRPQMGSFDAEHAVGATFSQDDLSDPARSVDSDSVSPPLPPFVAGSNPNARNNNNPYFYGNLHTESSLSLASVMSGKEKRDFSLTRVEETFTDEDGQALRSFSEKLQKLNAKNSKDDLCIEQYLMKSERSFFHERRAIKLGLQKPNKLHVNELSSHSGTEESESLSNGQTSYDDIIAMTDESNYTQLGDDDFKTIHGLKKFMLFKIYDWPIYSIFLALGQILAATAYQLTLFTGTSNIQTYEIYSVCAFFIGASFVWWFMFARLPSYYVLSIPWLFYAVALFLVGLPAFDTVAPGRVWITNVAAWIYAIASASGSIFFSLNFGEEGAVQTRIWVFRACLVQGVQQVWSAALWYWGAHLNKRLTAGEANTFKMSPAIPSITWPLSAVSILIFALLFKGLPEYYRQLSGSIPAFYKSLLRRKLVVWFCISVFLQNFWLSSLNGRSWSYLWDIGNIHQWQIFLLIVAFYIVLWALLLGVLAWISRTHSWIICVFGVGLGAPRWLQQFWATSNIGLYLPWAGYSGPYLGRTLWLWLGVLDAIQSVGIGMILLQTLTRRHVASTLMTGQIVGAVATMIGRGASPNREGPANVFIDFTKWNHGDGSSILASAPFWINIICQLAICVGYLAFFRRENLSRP
UniProt Q10287: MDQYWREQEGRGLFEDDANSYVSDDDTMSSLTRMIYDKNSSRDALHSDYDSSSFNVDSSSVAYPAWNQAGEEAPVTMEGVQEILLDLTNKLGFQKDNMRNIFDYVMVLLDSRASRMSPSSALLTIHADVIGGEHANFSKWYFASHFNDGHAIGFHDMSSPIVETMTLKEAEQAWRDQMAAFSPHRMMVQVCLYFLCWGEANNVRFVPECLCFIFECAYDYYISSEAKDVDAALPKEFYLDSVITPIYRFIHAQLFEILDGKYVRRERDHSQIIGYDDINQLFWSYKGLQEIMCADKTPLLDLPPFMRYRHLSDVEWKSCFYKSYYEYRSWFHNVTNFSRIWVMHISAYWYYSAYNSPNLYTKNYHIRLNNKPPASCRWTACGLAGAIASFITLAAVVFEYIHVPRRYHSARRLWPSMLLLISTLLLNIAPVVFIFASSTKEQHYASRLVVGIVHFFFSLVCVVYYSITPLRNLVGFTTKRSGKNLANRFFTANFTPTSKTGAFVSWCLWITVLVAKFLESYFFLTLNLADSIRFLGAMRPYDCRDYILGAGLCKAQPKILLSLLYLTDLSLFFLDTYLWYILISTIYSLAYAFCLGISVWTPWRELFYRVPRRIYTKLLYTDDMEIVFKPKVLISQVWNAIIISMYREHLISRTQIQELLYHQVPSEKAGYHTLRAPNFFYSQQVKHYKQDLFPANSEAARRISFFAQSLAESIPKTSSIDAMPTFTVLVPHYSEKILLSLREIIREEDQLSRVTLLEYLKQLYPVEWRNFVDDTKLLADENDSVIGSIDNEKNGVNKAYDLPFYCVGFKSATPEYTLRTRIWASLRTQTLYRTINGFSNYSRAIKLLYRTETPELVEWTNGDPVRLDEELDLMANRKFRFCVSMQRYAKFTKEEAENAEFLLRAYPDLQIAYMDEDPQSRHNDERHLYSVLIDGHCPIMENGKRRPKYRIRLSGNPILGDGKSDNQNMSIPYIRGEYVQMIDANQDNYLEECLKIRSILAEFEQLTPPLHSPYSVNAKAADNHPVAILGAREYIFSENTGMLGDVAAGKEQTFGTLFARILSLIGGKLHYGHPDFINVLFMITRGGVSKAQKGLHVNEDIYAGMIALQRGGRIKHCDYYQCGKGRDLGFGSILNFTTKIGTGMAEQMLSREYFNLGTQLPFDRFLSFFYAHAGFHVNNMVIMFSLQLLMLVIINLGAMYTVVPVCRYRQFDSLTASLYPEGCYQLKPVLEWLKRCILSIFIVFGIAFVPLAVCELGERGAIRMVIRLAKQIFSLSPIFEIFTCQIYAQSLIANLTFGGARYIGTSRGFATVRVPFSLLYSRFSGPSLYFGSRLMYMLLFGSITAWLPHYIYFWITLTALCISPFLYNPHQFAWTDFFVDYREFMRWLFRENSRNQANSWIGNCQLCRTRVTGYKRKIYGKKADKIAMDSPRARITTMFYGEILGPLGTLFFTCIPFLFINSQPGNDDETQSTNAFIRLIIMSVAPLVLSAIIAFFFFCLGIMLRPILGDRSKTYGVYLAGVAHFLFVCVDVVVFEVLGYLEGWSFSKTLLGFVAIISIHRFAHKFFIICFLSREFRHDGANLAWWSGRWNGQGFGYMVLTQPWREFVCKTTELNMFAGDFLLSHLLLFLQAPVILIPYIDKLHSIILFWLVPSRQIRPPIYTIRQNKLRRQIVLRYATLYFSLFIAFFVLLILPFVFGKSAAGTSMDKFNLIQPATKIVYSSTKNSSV

These are yes or no findings as the source states them, for the method shown. In cells and extracts the contact can be indirect. Some binding calls cover weakened binding; strength is not graded here.

The target of the assay is GFP-Ags1p (S. pombe) (UniProt Q9USK8). In words: co-IP; solubilized membrane proteins of S. pombe strains (50 mM Tris-HCl pH 7.5, 5 mM EDTA, 200 mM NaCl, 0.5% Tween 20) immunoprecipitated with anti-GFP antibody and protein A Sepharose at 4°C; blotted with anti-HA.

Take HA-Bgs1p (from UniProt Q10287 1-1729): the binding entry is on record as “binds”.
